{"source": "PubChem BioAssay AID1053208 (Peter MacCallum Cancer Centre, 2014)", "aim": "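Synthetic lethal interactions between gene loss and doxorubicin in osteosarcoma cells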 (primary screen)", "cell system": "mouse osteosarcoma cells, early-passage culture from an engineered mouse model of fibroblastic bone tumour", "knock-down reagent": "siRNA pool against mouse genes, 40 nM", "time to read-out": "about 120 h (48 h before drug, then 72 h with drug)", "conditions": "doxorubicin 100 nM for 72 h, roughly 30-40% inhibitory dose", "read-out": "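Viability read as ATP luminescence after 72 h of 100 nM doxorubicin or none, duplicate wells averaged, scaled to non-targeting siRNA, then expressed as robust z-scores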", "reading the numbers": "viability z-score with doxorubicin: higher = more viable cells under doxorubicin; viability z-score without drug: higher = more viable cells with knock-down alone", "active means": "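Called active if knock-down leaves viability unchanged without drug (z within -2 to 2) but lowers it with doxorubicin (z at or under -2)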", "note": "The deposit covers about 17,000 reagents; shown is an unselected part. Over the whole deposit, 788 (4.7%) are marked active. 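Calls rest on z-score classes alone; an extra cut-off of viability at most 70% of control was not applied to them.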 Not all columns of the deposit are shown. No sequences are given here."}
{"Gene": "Rhno1 (GeneID 72440)", "combined z-score class": "no change with or without drug", "viability z-score with doxorubicin": -0.11, "viability z-score without drug": -0.17, "outcome": "inactive"}
{"Gene": "Jam2 (GeneID 67374)", "combined z-score class": "no change with or without drug", "viability z-score with doxorubicin": -1.91, "viability z-score without drug": 0.51, "outcome": "inactive"}
{"Gene": "Sp8 (GeneID 320145)", "combined z-score class": "no change with or without drug", "viability z-score with doxorubicin": -1.46, "viability z-score without drug": -1.52, "outcome": "inactive"}
{"Gene": "Alg11 (GeneID 207958)", "combined z-score class": "no change with or without drug", "viability z-score with doxorubicin": 0.45, "viability z-score without drug": 0.34, "outcome": "inactive"}
{"Gene": "Ube2v1 (GeneID 66589)", "combined z-score class": "high cell count with doxorubicin only", "viability z-score with doxorubicin": 2.02, "viability z-score without drug": 1.85, "outcome": "inactive"}
{"Gene": "Gpr141b (GeneID 319293)", "combined z-score class": "no change with or without drug", "viability z-score with doxorubicin": -0.67, "viability z-score without drug": -1.01, "outcome": "inactive"}
{"Gene": "Map1lc3a (GeneID 66734)", "combined z-score class": "no change with or without drug", "viability z-score with doxorubicin": 0.22, "viability z-score without drug": -1.18, "outcome": "inactive"}
{"Gene": "Xtbd1 (GeneID 52626)", "combined z-score class": "no change with or without drug", "viability z-score with doxorubicin": -0.56, "viability z-score without drug": 1.52, "outcome": "inactive"}

Continued (2 carried over from the part before).
{"Gene": "Map1lc3a (GeneID 66734)", "combined z-score class": "no change with or without drug", "viability z-score with doxorubicin": 0.22, "viability z-score without drug": -1.18, "outcome": "inactive"}
{"Gene": "Xtbd1 (GeneID 52626)", "combined z-score class": "no change with or without drug", "viability z-score with doxorubicin": -0.56, "viability z-score without drug": 1.52, "outcome": "inactive"}
{"Gene": "Arln (GeneID 67704)", "combined z-score class": "no change with or without drug", "viability z-score with doxorubicin": 0.22, "viability z-score without drug": 0.34, "outcome": "inactive"}
{"Gene": "Ndufa10 (GeneID 67273)", "combined z-score class": "no change with or without drug", "viability z-score with doxorubicin": 0.67, "viability z-score without drug": -0.84, "outcome": "inactive"}
{"Gene": "Ucma (GeneID 68527)", "combined z-score class": "no change with or without drug", "viability z-score with doxorubicin": 0.9, "viability z-score without drug": -0.17, "outcome": "inactive"}
{"Gene": "Nek5 (GeneID 330721)", "combined z-score class": "no change with or without drug", "viability z-score with doxorubicin": -1.46, "viability z-score without drug": -1.52, "outcome": "inactive"}
{"Gene": "Tbc1d22a (GeneID 223754)", "combined z-score class": "no change with or without drug", "viability z-score with doxorubicin": 1.01, "viability z-score without drug": -0.17, "outcome": "inactive"}
{"Gene": "Or6c69 (GeneID 258667)", "combined z-score class": "no change with or without drug", "viability z-score with doxorubicin": 0, "viability z-score without drug": 0.17, "outcome": "inactive"}
{"Gene": "Depdc5 (GeneID 277854)", "combined z-score class": "no change with or without drug", "viability z-score with doxorubicin": 0.34, "viability z-score without drug": 1.18, "outcome": "inactive"}
{"Gene": "Ninj1 (GeneID 18081)", "combined z-score class": "no change with or without drug", "viability z-score with doxorubicin": 0.67, "viability z-score without drug": -0.67, "outcome": "inactive"}
{"Gene": "Foxd4 (GeneID 14237)", "combined z-score class": "no change with or without drug", "viability z-score with doxorubicin": 0.22, "viability z-score without drug": -0.51, "outcome": "inactive"}
{"Gene": "Or5b104 (GeneID 258568)", "combined z-score class": "no change with or without drug", "viability z-score with doxorubicin": -0.11, "viability z-score without drug": -0.51, "outcome": "inactive"}
{"Gene": "Tcf20 (GeneID 21411)", "combined z-score class": "no change with or without drug", "viability z-score with doxorubicin": 0.34, "viability z-score without drug": 1.18, "outcome": "inactive"}
